Results published in PMC10152145.

Molecular target: DCP1‐TurboID‐6xHis‐3xFLAG (Arabidopsis thaliana)
Assay: affinity purification with mass spectrometry + proximity labelling; APEAL as a whole (AP and PDL steps in tandem, step not told for the statement); DCP1‐TurboID‐HF bait in Arabidopsis rosette leaves, non-stress or heat stress

Row | Binder | binding
1 | RNA‐BINDING PROTEIN 47B (protein, UniProt Q0WW84 1-435) MQTTNGSDSTLATSGATPPNQQTPPPPQQWQQQQQQQQQWMAAMQYPPAAAMMMMQQQQMLMYPHQYVPYNQGPYQQHHPQLHQYGSYQQHQHQQHKAIDRGSGDDVKTLWVGDLLHWMDETYLHSCFSHTGEVSSVKVIRNKLTSQSEGYGFVEFLSRAAAEEVLQNYSGSVMPNSDQPFRINWASFSTGEKRAVENGPDLSVFVGDLSPDVTDVLLHETFSDRYPSVKSAKVVIDSNTGRSKGYGFVRFGDENERSRALTEMNGAYCSNRQMRVGIATPKRAIANQQQHSSQAVILAGGHGSNGSMGYGSQSDGESTNATIFVGGIDPDVIDEDLRQPFSQFGEVVSVKIPVGKGCGFVQFADRKSAEDAIESLNGTVIGKNTVRLSWGRSPNKQWRGDSGQQWNGGYSRGHGYNNGGGYANHHDSNNYHGEN | no binding
2 | Ras‐related protein Rab‐A5c (protein, UniProt P28187 1-214) MSDDDERGEEYLFKIVIIGDSAVGKSNLLTRYARNEFNPNSKATIGVEFQTQSMLIDGKEVKAQIWDTAGQERFRAVTSAYYRGAVGALVVYDITRSSTFENVGRWLDELNTHSDTTVAKMLIGNKCDLESIRAVSVEEGKSLAESEGLFFMETSALDSTNVKTAFEMVIREIYSNISRKQLNSDSYKEELTVNRVSLVKNENEGTKTFSCCSR | no binding
3 | PINFORMED7 (protein, UniProt Q940Y5 1-619) MITWHDLYTVLTAVIPLYVAMILAYGSVRWWKIFSPDQCSGINRFVAIFAVPLLSFHFISSNNPYAMNLRFIAADTLQKLIMLTLLIIWANFTRSGSLEWSITIFSLSTLPNTLVMGIPLLIAMYGEYSGSLMVQIVVLQCIIWYTLLLFLFEYRGAKILIMEQFPETGASIVSFKVESDVVSLDGHDFLETDAQIGDDGKLHVTVRKSNASRRSFYGGGGTNMTPRPSNLTGAEIYSLNTTPRGSNFNHSDFYSMMGFPGGRLSNFGPADMYSVQSSRGPTPRPSNFEESCAMASSPRFGYYPGGAPGSYPAPNPEFSTGNKTGSKAPKENHHHVGKSNSNDAKELHMFVWGSNGSPVSDRAGLQVDNGANEQVGKSDQGGAKEIRMLISDHTQNGENKAGPMNGDYGGEEESERVKEVPNGLHKLRCNSTAELNPKEAIETGETVPVKHMPPASVMTRLILIMVWRKLIRNPNTYSSLIGLIWALVAFRWDVAMPKIIQQSISILSDAGLGMAMFSLGLFMALQPKLIACGNSTATFAMAVRFFTGPAVMAVAAMAIGLRGDLLRVAIVQAALPQGIVPFVFAKEYNVHPAILSTGVIFGMLIALPITLVYYILLGL | no binding

These are yes or no findings as the source states them, for the method shown. Binding seen in cells or lysates may run through a third protein. Here binding means that the protein was enriched with, or labelled near, the bait; the list need not be complete. A no says only that the protein was not detected with the bait.
